Measured values as given in the supplement of paper PMC11006884.
Most of the targets with a hit are listed elsewhere, so they are rarer here than in the full data. This is a noisy data set. This is a selection; strong and weak results do not stand in their true shares.

The chains behind the UniProt entries cited, without tags or fusion partners. Where a name states a change or a piece, a line headed by the entry shows the natural chain unless it says otherwise.
UniProt Q9BU23: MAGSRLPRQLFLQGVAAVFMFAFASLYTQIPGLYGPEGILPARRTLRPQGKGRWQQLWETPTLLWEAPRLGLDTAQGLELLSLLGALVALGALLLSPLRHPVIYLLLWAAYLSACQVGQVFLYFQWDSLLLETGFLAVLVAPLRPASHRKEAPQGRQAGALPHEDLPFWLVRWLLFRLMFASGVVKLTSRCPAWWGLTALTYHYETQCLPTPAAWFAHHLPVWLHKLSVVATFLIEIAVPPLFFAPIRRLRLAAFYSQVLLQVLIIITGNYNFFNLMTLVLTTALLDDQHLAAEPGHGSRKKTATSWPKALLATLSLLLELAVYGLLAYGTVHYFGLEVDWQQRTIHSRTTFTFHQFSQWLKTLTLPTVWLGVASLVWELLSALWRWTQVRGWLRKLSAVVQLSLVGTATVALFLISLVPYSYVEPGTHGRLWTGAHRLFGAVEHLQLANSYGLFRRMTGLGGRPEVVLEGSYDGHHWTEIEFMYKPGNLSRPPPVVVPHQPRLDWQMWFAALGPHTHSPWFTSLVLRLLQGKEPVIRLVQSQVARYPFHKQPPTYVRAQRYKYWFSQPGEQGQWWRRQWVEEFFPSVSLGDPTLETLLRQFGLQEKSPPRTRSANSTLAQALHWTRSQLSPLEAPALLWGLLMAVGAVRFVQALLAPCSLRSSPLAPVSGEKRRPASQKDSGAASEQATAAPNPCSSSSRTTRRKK
UniProt Q9BRR6: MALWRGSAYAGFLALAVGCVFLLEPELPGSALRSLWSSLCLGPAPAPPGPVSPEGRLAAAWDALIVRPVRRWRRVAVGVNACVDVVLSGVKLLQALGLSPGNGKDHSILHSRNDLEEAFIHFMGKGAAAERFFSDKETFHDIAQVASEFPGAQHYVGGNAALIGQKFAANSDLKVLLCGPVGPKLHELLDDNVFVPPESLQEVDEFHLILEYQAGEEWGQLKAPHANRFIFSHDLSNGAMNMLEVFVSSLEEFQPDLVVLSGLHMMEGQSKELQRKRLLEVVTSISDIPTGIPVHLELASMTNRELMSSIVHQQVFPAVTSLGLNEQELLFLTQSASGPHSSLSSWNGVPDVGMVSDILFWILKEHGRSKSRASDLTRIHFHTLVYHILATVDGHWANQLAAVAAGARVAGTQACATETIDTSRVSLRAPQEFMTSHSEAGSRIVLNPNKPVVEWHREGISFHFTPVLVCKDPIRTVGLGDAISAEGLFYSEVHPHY
UniProt Q9BVQ7: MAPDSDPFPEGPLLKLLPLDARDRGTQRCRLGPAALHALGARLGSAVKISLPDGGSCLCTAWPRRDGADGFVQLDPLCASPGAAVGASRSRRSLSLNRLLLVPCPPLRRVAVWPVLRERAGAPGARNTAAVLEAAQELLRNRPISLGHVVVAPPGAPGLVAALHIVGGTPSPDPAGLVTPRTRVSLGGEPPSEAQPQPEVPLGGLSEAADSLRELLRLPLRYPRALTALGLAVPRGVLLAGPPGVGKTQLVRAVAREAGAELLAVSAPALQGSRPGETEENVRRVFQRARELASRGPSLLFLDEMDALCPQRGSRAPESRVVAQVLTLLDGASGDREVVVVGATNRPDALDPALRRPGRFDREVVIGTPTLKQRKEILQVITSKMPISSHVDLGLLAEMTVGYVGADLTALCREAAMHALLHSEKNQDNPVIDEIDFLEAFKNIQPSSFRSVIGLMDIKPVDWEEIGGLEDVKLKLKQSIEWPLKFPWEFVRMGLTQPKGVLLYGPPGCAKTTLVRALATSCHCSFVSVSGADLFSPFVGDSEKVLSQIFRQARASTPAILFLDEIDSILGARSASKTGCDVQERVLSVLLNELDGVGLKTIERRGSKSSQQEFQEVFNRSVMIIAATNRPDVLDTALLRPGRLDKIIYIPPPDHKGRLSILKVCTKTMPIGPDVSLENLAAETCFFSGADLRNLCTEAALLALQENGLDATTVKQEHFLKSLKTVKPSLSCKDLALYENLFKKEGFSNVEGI
UniProt Q9BXP5: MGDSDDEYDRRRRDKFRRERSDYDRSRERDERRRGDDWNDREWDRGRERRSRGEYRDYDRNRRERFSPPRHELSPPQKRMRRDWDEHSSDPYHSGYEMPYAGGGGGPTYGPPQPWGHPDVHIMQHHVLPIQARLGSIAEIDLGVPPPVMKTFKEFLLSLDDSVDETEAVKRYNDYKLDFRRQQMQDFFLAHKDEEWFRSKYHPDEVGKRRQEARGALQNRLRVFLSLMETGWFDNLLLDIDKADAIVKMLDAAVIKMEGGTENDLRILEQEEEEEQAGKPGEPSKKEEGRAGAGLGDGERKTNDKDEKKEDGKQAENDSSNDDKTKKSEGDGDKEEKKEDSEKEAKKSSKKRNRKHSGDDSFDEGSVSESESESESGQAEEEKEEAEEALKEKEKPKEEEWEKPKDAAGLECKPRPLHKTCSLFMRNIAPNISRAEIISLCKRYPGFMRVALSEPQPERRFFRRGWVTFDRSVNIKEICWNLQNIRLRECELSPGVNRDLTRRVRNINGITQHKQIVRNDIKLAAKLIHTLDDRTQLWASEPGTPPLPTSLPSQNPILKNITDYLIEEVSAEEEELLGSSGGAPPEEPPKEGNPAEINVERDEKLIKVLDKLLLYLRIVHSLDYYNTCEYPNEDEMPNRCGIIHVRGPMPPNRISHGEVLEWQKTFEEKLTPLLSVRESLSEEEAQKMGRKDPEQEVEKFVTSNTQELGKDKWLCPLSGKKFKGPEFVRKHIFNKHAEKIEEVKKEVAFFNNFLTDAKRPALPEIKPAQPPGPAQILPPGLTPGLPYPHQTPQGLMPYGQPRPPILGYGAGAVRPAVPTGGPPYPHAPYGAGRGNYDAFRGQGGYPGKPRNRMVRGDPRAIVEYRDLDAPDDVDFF
UniProt Q9BVP2: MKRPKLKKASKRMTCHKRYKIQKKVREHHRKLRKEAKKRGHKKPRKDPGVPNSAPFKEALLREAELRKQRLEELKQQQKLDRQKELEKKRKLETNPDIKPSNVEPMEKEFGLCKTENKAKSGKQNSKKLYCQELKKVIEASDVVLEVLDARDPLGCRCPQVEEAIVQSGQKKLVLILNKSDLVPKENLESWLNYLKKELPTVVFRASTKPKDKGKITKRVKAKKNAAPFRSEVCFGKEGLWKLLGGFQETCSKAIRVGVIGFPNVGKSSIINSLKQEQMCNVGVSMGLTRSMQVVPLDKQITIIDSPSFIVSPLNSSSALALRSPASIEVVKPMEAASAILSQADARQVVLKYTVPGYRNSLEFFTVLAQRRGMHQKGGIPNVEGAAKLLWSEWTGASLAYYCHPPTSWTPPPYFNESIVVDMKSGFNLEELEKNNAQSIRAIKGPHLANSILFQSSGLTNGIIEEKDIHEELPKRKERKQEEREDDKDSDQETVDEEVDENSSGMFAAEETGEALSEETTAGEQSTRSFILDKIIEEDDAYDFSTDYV
UniProt Q9BV57: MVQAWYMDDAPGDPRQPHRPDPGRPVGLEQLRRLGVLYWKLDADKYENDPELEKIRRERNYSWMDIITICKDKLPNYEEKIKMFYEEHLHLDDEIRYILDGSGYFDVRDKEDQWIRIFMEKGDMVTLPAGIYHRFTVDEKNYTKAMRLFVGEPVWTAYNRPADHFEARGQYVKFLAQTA
UniProt Q9H0B6: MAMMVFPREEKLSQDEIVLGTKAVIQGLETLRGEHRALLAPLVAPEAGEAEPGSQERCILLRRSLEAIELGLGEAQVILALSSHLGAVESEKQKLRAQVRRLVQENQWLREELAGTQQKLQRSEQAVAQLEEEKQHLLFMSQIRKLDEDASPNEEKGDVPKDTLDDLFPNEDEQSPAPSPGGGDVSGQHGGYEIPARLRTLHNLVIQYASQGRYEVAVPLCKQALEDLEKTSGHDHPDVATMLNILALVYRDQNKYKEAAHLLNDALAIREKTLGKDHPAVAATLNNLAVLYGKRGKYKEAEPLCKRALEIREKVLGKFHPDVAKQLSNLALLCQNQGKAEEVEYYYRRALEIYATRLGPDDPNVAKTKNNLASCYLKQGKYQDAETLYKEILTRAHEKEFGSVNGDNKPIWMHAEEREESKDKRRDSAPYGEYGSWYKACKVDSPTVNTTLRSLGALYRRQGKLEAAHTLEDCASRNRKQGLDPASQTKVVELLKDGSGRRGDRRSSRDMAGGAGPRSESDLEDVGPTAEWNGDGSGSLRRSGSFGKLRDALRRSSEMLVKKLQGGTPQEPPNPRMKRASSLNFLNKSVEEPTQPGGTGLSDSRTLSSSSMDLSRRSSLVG
UniProt Q9C0B1, whole entry, looked up: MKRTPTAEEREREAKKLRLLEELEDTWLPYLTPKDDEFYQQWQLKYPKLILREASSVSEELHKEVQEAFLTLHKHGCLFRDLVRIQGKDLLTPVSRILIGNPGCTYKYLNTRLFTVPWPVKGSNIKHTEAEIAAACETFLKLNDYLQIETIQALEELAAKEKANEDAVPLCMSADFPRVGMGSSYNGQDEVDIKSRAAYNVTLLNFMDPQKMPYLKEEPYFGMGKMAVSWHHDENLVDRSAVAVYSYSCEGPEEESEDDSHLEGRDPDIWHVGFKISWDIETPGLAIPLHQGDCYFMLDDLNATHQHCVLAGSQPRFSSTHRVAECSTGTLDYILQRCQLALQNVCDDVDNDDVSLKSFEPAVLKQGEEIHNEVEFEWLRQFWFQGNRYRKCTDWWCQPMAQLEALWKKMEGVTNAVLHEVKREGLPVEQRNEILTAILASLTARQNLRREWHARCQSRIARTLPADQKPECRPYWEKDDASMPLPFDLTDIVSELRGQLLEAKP
UniProt Q9BR76, whole entry: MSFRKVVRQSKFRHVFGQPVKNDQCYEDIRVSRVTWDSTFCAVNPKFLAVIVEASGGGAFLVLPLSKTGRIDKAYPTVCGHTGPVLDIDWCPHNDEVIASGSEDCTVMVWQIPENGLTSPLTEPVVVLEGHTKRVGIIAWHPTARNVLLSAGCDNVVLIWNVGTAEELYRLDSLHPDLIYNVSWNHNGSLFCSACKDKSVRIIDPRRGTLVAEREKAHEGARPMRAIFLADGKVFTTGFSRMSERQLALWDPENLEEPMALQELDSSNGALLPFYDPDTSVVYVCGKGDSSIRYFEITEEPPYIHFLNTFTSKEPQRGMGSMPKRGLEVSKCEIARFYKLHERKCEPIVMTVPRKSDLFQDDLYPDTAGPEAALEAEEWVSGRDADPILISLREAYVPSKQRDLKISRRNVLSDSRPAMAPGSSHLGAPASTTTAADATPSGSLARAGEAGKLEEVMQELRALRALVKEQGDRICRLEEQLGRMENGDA
UniProt Q9BWF3: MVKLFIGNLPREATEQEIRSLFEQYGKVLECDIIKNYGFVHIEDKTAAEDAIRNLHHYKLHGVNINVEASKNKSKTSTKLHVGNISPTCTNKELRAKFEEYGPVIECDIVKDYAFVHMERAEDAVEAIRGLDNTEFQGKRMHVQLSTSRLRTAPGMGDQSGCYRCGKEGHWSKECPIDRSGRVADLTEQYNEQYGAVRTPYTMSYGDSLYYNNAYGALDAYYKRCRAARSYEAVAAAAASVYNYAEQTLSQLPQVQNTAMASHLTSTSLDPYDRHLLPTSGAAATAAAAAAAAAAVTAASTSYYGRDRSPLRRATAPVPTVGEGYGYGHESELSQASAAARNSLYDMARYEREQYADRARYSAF
UniProt Q9BSH5: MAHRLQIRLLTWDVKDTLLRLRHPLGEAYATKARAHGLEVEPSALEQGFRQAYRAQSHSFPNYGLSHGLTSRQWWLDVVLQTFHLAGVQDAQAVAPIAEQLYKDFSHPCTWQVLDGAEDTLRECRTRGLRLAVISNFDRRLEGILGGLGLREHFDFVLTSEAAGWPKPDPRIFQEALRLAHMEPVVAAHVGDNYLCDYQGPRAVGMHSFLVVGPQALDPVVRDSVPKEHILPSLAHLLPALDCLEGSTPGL
UniProt Q9BWD1: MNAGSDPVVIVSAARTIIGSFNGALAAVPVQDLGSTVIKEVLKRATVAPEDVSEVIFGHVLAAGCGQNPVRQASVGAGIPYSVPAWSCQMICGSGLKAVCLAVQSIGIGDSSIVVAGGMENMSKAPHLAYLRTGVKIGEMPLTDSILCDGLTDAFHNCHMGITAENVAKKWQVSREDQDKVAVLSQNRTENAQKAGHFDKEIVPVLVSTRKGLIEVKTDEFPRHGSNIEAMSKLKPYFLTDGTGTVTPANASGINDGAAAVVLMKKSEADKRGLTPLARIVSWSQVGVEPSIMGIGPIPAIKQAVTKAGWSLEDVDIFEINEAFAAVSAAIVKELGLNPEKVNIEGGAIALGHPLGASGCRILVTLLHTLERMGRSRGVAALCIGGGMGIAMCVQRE

Each target was assayed with COC(=O)/C=C/c1ccccc1 [methyl cinnamate] (assay: log2 ratio of iodoacetamide-alkyne labeling of the cysteine site, DMSO over compound (competition); higher = stronger covalent engagement of the cysteine by the compound, active = 1 or more). Settings: 500 µM; treatment time 1 h; system: HEK293T cell lysate.
In short: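 HEK293T lysate (2 mg/mL) was incubated with electrophile (500 µM) or vehicle for 1 h at ambient temperature and then with iodoacetamide alkyne for 1 h. Labelled proteins were clicked to sCIP-TMT reagents, pooled, digested, enriched on streptavidin and measured by Orbitrap Eclipse LC-MS/MS with FAIMS, with FragPipe quantification. The per-cysteine log2 competition ratio is mean control-channel reporter intensity over mean compound-channel reporter intensity. Across three replicates with duplicate channels, cysteines quantified in only one replicate were excluded.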

log2 ratio of iodoacetamide-alkyne labeling, inactive:
KIFC1 C557 (UniProt Q9BW19) -0.164, POLDIP3 C301 (UniProt Q9BY77) -0.0678, DIDO1 C856 (UniProt Q9BTC0) -0.00383, LMF2 C696 (UniProt Q9BU23) 0.404, ADPGK C40 (UniProt Q9BRR6) 0.146, SPATA5L1 C309 (UniProt Q9BVQ7) 0.225, UniProt Q9BXP5_C490 0.0425, GNL3 C156 (UniProt Q9BVP2) 0.0234, ADI1 C70 (UniProt Q9BV57) 0.0329, RAB11FIP5 C337 (UniProt Q9BXF6) 0.232, KLC2 C441 (UniProt Q9H0B6) 0.312, HNRNPUL1 C532 (UniProt Q9BUJ2) 0.0891, FTO C397 (UniProt Q9C0B1) 0.193, CORO1B C475 (UniProt Q9BR76) 0.261, RBM4 C107 (UniProt Q9BWF3) -0.129, HDHD3 C243 (UniProt Q9BSH5) 0.0355, TNKS1BP1 C1296 (UniProt Q9C0C2) 0.318, LSG1 C455 (UniProt Q9H089) -0.258, MRPL37 C153 (UniProt Q9BZE1) 0.0654, ACAT2 C360 (UniProt Q9BWD1) 0.131, POLDIP3 C338 (UniProt Q9BY77) 0.147
